Experimental data published in patent US5451658A, “Antagonists of human gamma interferon” (Schering Corporation, priority 1993, dated 1995).
At least one peptide structure holds a part that was inferred or is arguable (an end, a ring closure or a residue). No end group written: not given here.

How the values were obtained:
[1] = tested on: gamma interferon-induced HLA-DR expression in COLO-205 cells; assay: Bio-ELISA assay for inhibition of HLA-DR induction by gamma interferon; type: cell-based, human; conditions: polypeptide 7 to 100 μM, constant 150 pM interferon; FIG. 3
[2] = tested on: gamma interferon receptors on Daudi cells; assay: Inhibition of the binding of 125I-labeled human gamma interferon D to Daudi cells (radioligand-receptor assay); conditions: for inhibition of the binding of 125I-labeled human gamma interferon D to receptors on Daudi cells (in words): FIG. 1

KKYFNAGHSDVADNGKAIHELIQGKRKRSQML [SEQ ID NO:10, Lys-Lys-Tyr-Phe-Asn-Ala-Gly-His-Ser-Asp-Val-Ala-Asp -Asn-Gly-Lys-Ala-Ile-His-Glu-Leu-Ile-Gln-Gly-Lys -Arg-Lys-Arg-Ser-Gln-Met-Leu]
inhibition of gamma interferon-induced HLA-DR antigen induction (in words) [1]: progressively greater inhibition

RKRSQM [SEQ ID NO:3, Arg-Lys-Arg-Ser-Gln-Met]
inhibition of the binding of 125I-labeled human gamma interferon D to receptors on Daudi cells (in words) [2]: inhibited the binding

KKYFNAGGGGRKRSQML [SEQ ID NO:2, Lys-Lys -Tyr-Phe-Asn-Ala-Gly-Gly-Gly-Gly-Arg-Lys-Arg -Ser-Gln-Met-Leu]
inhibition of the binding of 125I-labeled human gamma interferon D to receptors on Daudi cells (in words) [2]: inhibited the binding | binding inhibition of 125I-labeled human gamma interferon D to receptors on Daudi cells ([2]; polypeptide concentration 0.145 μM): about 15% | binding inhibition of 125I-labeled human gamma interferon D to receptors on Daudi cells ([2]; polypeptide concentration 1.45 μM): ~35%
